Experimental data from PubChem BioAssay AID1347426 (Functional Genomics Laboratory (NCATS/FGL), 2020).
Among all 31,000 sequences or so, about 1,400 (4.5%) were called active.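 Rule for the calls: active = median seed-adjusted z-score above 1 or below -1; inactive = the rest.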 This is one part of the list.

Test: Novel Modifiers of Survival Motor Neuron (SMN) Protein: Gene Identification via Genome-wide siRNA Screen;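 note: luminescence tracks full-length SMN protein made from the SMN2 reporter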
Conditions: HEK293T SMN2-luciferase reporter, siRNA knockdown, 72 h; actives lie on both sides
Method in brief: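 HEK293T cells stably carrying an SMN2 promoter/splicing cassette–luciferase reporter were reverse-transfected with 1 pmol siRNA per well (druggable-genome library, 3 siRNAs per gene) and grown 72 h at 37 °C. Luminescence, normalized to negative-control siRNA and log10-transformed, was scored as MAD.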
With GGCUCACGGAAUUUGAAGATT against BRF1 the median seed-adjusted z-score was inactive: -0.261. For GAAAAAUACCUAUUCUAGATT against F7, the median seed-adjusted z-score was inactive: 0.277. With GCAUUGAUCCAAAAGAAGATT against FOXN2 the median seed-adjusted z-score was inactive: 0.0947. For GGUCUAUGGUGUCCACUUUTT against HGD, the median seed-adjusted z-score was inactive: -0.0401. With AGAAACGAAUUCCAUUUUATT against KCTD14 the median seed-adjusted z-score was inactive: -0.166. With CAGUAGCAGUGGAAUGGGATT against RBMX the median seed-adjusted z-score was inactive: 0.0941. In the case of CCGUAUAUAUCAAUAUGAATT against ANKRD30A, the median seed-adjusted z-score is reported as inactive: 0.259. In the case of GCAUCCGAAAGAUUGGUUATT against GRIA1, the median seed-adjusted z-score is reported as inactive: 0.927. For CCUCAAAUUUUACUAAUCATT against ZNF708, the median seed-adjusted z-score was inactive: 0.0562. With GAUCCUACAGUGGAGAAUATT against RHEBL1 the median seed-adjusted z-score was inactive: -0.268. In the case of GAGUAAAUGUGGAGCAUAATT against AGPS, the median seed-adjusted z-score is reported as inactive: 0.289. In the case of CACUUCUCCCAGAUCGUUATT against FDPS, the median seed-adjusted z-score is reported as inactive: 0.0115. With GAAGACUUCUUUCUCUACATT against GABARAP the median seed-adjusted z-score was inactive: 0.418. In the case of CGGAGUUCUUGGUCCAGAUTT against VPS4A, the median seed-adjusted z-score is reported as inactive: 0. For GAUGAAUACCUGAAAUGUATT against ART3, the median seed-adjusted z-score was inactive: -0.434. In the case of CUACCCAACCUGUAGCUAATT against UBE2J1, the median seed-adjusted z-score is reported as active: -1.2. With GCAGGAGCUGUAUUUGAUGTT against NUDT6 the median seed-adjusted z-score was inactive: 0.281. With CCGCUGCGUUUAUAUGGAUTT against ZZEF1 the median seed-adjusted z-score was inactive: 0.167. With CAACCCAGCCCAUCCCAAATT against PDK2 the median seed-adjusted z-score was inactive: -0.481. With CUUUCGGUUUGAAGAAUAATT against ZC3H15 the median seed-adjusted z-score was inactive: 0.191. With CAACAUCUCAGAUAGUUUUTT against XRCC6BP1 the median seed-adjusted z-score was inactive: 0.128. In the case of GGAGAAUUCUGAGCACAGATT against PPYR1, the median seed-adjusted z-score is reported as inactive: 0.589. With GGACUUUAUUCAUAUGAUUTT against HNMT the median seed-adjusted z-score was inactive: 0.336. In the case of GGGUUACAGUAACUGCAAUTT against GABRR1, the median seed-adjusted z-score is reported as inactive: 0.286. For GAGACUGACUACAAGAACATT against STK38, the median seed-adjusted z-score was inactive: -0.961. With GCAAAUACCUGAGAAGCGATT against BCMO1 the median seed-adjusted z-score was inactive: 0.53. With CAUGCAGCCUUAAGCCUCATT against ILKAP the median seed-adjusted z-score was inactive: 0. For CGGCCGAUGUAUGUACUGATT against CPA4, the median seed-adjusted z-score was inactive: -0.182. For GCCUCGCAGAUCAACCUCATT against ABCD1, the median seed-adjusted z-score was inactive: 0. With GACACGUUCUUUCUCAUCATT against CLCA4 the median seed-adjusted z-score was inactive: 0.186. For CUAAGAGAAUAUACGCUUATT against NRD1, the median seed-adjusted z-score was inactive: 0.0825. In the case of GCACUGUUCUGGGACUCCATT against MPZ, the median seed-adjusted z-score is reported as inactive: 0.337. In the case of GCACCUAUGUCACCUGGAUTT against AVPR2, the median seed-adjusted z-score is reported as inactive: -0.262. With ACCUCUUACCCAACACCAATT against CLDN1 the median seed-adjusted z-score was inactive: 0.307. For GGCGAUCUAGUGUAUGUUATT against FOLH1, the median seed-adjusted z-score was inactive: 0.148. In the case of GACCCGUACUUCAUGAAGATT against SF3A2, the median seed-adjusted z-score is reported as active: -1.7. For GCCUUUUCCAAGUUUGUAUTT against VN1R4, the median seed-adjusted z-score was inactive: -0.0601. In the case of GUGUCUCCCUAAACUCAAUTT against ZMAT4, the median seed-adjusted z-score is reported as inactive: -0.0468. For CGAACAAAACGGGCCUGGATT against FOXA2, the median seed-adjusted z-score was inactive: 0.883. For GACUCGUUGUUGGUCUAAATT against MAP3K7, the median seed-adjusted z-score was inactive: -0.23. For GCAGUCAGUUCACCAGGAATT against PDCL, the median seed-adjusted z-score was inactive: -0.802. With CUUCCAAUGUUAAUGGACATT against VHLL the median seed-adjusted z-score was inactive: -0.0852. With ACAUCUCACGGAUCCUUAATT against PAX4 the median seed-adjusted z-score was inactive: 0.0811. In the case of GGAGUUUGCGCUGGUCAAATT against NDN, the median seed-adjusted z-score is reported as inactive: -0.146. For GCCCAGAAGUUUAGGGAAATT against TAP1, the median seed-adjusted z-score was inactive: -0.506. With CUCCUAAUCUUGUUCGAUATT against NDUFS1 the median seed-adjusted z-score was inactive: -0.217. For CCAGUGAUAUUAGAUCGGUTT against USP42, the median seed-adjusted z-score was inactive: -0.0125. For GGUUGCGGCUCAGAACAAATT against OAS3, the median seed-adjusted z-score was inactive: 0.147. For GUUUCGAAAUUUACAACAATT against NUP160, the median seed-adjusted z-score was inactive: -0.261. For CGAUAUAAAGUCGGAAGAATT against DCLK1, the median seed-adjusted z-score was inactive: 0.193. In the case of GCACCUAAAUCAUAAUCCATT against HSF5, the median seed-adjusted z-score is reported as inactive: 0.369. With GCAACUUCGUGAGAUUACATT against COLEC12 the median seed-adjusted z-score was active: -1.04. For GCAACGGUGCUUUCCCAGATT against CASKIN1, the median seed-adjusted z-score was inactive: 0.555. For GAAGCUUGCCUUGAAAUAUTT against DNAJC5, the median seed-adjusted z-score was inactive: -0.0844. With GGAAGUCCUUUUAUUACCATT against DTNA the median seed-adjusted z-score was inactive: 0. With ACAACAGACCAGAGAAUGATT against SRF the median seed-adjusted z-score was inactive: -0.393. With GGAGCCUACCCAAAACCCATT against LILRB2 the median seed-adjusted z-score was inactive: -0.911. With GGAUCACAGUUACAAGGCUTT against L3MBTL2 the median seed-adjusted z-score was inactive: -0.312. In the case of CCAGGUAGACUUAAUGAAATT against ZNF202, the median seed-adjusted z-score is reported as inactive: 0.534. For CCUACUACCUCAAACACCATT against SYVN1, the median seed-adjusted z-score was active: -1.41. With CAGCGGUACUUCUUCCAGATT against ADCY6 the median seed-adjusted z-score was inactive: -0.0652. In the case of CAACAUUCAUGGACGGGAATT against SLC2A7, the median seed-adjusted z-score is reported as inactive: -0.0337. In the case of GGGUGGAUCAUUCACAGAATT against NAT13, the median seed-adjusted z-score is reported as inactive: 0. For GAAUCACCAUGAAUGUAAUTT against ZNF558, the median seed-adjusted z-score was inactive: -0.393. With GGCACAUCCUGCAAGCUCATT against ADAMTSL2 the median seed-adjusted z-score was inactive: 0.806. For GGAGCAUGGUGGUAUAAGATT against TNR, the median seed-adjusted z-score was inactive: 0.498. In the case of GCCUUAGGGACAACAGUGATT against GTF2IRD2, the median seed-adjusted z-score is reported as inactive: 0.904. For GCCCAGUUGCUUAACGAAUTT against ACVR2A, the median seed-adjusted z-score was inactive: -0.22. With CGGGUCGUAUUAUCACCAUTT against FOXF2 the median seed-adjusted z-score was inactive: -0.608. For CCGCAAUAAGAAUCGAUAUTT against PTPRT, the median seed-adjusted z-score was inactive: -0.323. For GGUUGACCUCAGCUUCGGATT against ATP5D, the median seed-adjusted z-score was inactive: 0. For ACACUAGUCCACCACCAAATT against TNP2, the median seed-adjusted z-score was inactive: -0.346. For GGACUUGAGUCUGAGUUCATT against PAOX, the median seed-adjusted z-score was inactive: 0. In the case of GGAAAACCUUUAGCUACAATT against ZNF551, the median seed-adjusted z-score is reported as inactive: -0.171. With CCAAAUUUGUAAACGGUGUTT against SLC28A3 the median seed-adjusted z-score was inactive: -0.107. For GUUACAAACUGUUUACAUATT against RCBTB1, the median seed-adjusted z-score was inactive: 0. With GGAGAGAUUCGAGUAGGAATT against MTA1 the median seed-adjusted z-score was inactive: 0.407. For UCCAUAUUCUGAUCAACAATT against RDH12, the median seed-adjusted z-score was inactive: -0.0267. In the case of GGAAAAUCUUCAGUAUGAATT against ZNF157, the median seed-adjusted z-score is reported as inactive: 0.137. With CCAUGAACAUCUUAGUCAATT against USP34 the median seed-adjusted z-score was inactive: 0.0665. In the case of GCUUAUUGCGGACAUCAUATT against CNGB3, the median seed-adjusted z-score is reported as inactive: 0.226. For CUUAAACUCUGUGCUUGUATT against ARPC4, the median seed-adjusted z-score was inactive: -0.211. For GAUUAAAGACUACAUCAUUTT against SLC26A9, the median seed-adjusted z-score was inactive: 0.223. With AGAUCGCUGUCAAAACCCUTT against GFOD1 the median seed-adjusted z-score was inactive: 0.923. In the case of GCAGGUCCGAGAUAUGAAUTT against MOBKL1B, the median seed-adjusted z-score is reported as inactive: 0.31. In the case of GCAAGUAACUGAAUCCAUUTT against TACSTD2, the median seed-adjusted z-score is reported as inactive: -0.681. With GGUUCACGGCUAAAGCAAUTT against DGCR8 the median seed-adjusted z-score was inactive: -0.266. In the case of GGGUACAUAUGCAACAGUATT against PCTK2, the median seed-adjusted z-score is reported as inactive: -0.497. In the case of GAAAUGUGCUCACUCUGUUTT against SVOP, the median seed-adjusted z-score is reported as inactive: 0. In the case of CAACAAGUUUCACACGUUCTT against CALCA, the median seed-adjusted z-score is reported as inactive: 0.0802. With GGAGCAGUUUGAAUGUCCATT against HR the median seed-adjusted z-score was inactive: 0.751. In the case of GCAAGACCUAAGCAAACUATT against BXDC1, the median seed-adjusted z-score is reported as inactive: 0.173. With AGAGGUUACUUCAAAGACATT against MED31 the median seed-adjusted z-score was inactive: -0.267. With GCGAAGAUUUGAGAAACGATT against VPS4B the median seed-adjusted z-score was inactive: -0.0992. With GGAGGAUUGGAUUUCCUGATT against CD1B the median seed-adjusted z-score was inactive: -0.407. With GACCGAAAAUCGCAAACCATT against DOCK11 the median seed-adjusted z-score was inactive: 0.293. In the case of CAUAUUGGUUGGUCUCGAATT against MBTD1, the median seed-adjusted z-score is reported as inactive: 0.0649. In the case of CCUAUUGACCCUGCAGUUATT against SPRR1A, the median seed-adjusted z-score is reported as inactive: -0.0536. In the case of GCAUCUCAGUACGAUGAAATT against DDX27, the median seed-adjusted z-score is reported as inactive: -0.131. With CCUGCACUCGGGAACAGAATT against TNFRSF1B the median seed-adjusted z-score was inactive: -0.483. In the case of CAUCUGAAGUCAUCACCAATT against PLA2G4F, the median seed-adjusted z-score is reported as inactive: -0.0231. In the case of CAAGUACUGUAAUCACCCATT against ATF2, the median seed-adjusted z-score is reported as inactive: 0.424. With GGCCUCUCACUAUCUCGUATT against POLRMT the median seed-adjusted z-score was inactive: 0.0812. In the case of CCAGGAUGAUUUAGCUGAATT against SCIN, the median seed-adjusted z-score is reported as inactive: 0.509. For GACUAUUUUUGUAUGCGAUTT against GNPDA2, the median seed-adjusted z-score was inactive: -0.422. In the case of GGCUUAUUUGCAUAUCAUATT against SSH1, the median seed-adjusted z-score is reported as inactive: 0.209. With CCCAAGACGUUCACCGUGATT against NF2 the median seed-adjusted z-score was inactive: -0.543. For UCACAGUCACAUACAGAGATT against SNRPD3, the median seed-adjusted z-score was active: -2.69.
